Reference: PMC11134664
Where two headings read alike, the source gives them in different places. Results are given in words; binding and its absence hold for the method and conditions named. In cells and extracts the contact can be indirect. Some entries that bind do so weakly or less than the wild type.

Sequences of proteins named here, by UniProt entry; tags and fusion partners are left off.
UniProt P04406: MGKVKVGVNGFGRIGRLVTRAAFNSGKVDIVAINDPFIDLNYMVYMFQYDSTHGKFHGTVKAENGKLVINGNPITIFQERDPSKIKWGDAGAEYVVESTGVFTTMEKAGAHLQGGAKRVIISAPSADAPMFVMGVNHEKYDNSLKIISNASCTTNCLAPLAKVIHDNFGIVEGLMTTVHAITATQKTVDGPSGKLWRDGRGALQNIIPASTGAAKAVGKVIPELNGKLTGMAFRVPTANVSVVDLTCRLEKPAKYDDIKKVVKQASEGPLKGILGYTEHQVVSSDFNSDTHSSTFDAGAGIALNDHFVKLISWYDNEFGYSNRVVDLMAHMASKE

T1: ABI3BP (human (endogenous in HK-2)) (UniProt Q7Z7G0)
T1 sequence: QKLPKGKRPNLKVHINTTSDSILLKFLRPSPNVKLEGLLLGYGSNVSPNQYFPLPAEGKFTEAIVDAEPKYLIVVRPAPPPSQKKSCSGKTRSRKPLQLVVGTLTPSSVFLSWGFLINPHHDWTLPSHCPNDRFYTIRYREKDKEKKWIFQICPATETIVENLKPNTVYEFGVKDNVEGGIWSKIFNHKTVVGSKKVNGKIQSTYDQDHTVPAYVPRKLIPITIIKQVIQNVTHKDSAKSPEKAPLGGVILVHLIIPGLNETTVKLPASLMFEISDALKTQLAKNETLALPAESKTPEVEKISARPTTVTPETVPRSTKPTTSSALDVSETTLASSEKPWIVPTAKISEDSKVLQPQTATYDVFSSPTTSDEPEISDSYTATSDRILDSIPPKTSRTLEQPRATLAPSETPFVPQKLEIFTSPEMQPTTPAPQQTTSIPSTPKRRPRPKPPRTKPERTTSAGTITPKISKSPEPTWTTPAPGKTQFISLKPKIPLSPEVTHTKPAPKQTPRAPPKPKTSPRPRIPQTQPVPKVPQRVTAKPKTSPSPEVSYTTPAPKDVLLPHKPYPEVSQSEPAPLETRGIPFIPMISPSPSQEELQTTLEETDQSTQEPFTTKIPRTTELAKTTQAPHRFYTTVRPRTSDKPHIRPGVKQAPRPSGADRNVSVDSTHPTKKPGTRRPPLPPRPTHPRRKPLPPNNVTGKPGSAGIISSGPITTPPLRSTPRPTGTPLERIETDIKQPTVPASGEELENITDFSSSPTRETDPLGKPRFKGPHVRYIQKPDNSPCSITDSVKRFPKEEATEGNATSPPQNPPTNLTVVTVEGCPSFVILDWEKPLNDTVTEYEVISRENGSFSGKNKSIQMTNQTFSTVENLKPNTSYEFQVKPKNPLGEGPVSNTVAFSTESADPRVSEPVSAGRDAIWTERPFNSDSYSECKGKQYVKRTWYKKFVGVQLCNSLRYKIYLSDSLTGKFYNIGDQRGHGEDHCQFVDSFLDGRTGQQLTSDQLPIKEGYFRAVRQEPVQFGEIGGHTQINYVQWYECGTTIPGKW

T2: Klotho (human (endogenous in HK-2)) (UniProt Q9UEF7)
T2 sequence: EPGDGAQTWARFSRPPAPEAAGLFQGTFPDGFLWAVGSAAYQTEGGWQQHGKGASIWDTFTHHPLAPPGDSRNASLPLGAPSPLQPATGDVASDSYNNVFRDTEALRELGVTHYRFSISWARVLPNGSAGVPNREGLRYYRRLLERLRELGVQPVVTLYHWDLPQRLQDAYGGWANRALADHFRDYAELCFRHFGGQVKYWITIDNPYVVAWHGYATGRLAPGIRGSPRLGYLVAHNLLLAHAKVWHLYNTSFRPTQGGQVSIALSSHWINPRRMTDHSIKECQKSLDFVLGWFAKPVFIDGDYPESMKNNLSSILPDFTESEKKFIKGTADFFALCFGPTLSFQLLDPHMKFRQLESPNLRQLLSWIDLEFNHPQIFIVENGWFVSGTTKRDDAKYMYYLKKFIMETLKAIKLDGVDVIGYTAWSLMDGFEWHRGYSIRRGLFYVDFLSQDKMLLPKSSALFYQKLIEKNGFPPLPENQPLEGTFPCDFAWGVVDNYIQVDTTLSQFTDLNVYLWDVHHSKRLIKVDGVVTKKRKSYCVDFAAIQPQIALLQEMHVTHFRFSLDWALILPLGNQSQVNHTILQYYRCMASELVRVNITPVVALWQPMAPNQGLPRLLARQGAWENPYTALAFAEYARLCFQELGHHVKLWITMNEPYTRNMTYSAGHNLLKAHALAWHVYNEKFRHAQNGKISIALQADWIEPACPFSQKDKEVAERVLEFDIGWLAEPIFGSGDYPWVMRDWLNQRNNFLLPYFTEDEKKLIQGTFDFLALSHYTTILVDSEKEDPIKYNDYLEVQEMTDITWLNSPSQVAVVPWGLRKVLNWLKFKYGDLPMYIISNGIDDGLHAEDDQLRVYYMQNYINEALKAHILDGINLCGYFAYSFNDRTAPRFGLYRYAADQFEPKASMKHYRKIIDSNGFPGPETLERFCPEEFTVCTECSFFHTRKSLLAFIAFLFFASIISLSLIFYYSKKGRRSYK


What was measured:
Assay in all cases: co-IP; HK-2 cells lysed in RIPA buffer; supernatant with Klotho or IgG antibody at 4 °C overnight, protein A/G-agarose beads 4-6 h at 4 °C; western blot
[1] = target: T1, ABI3BP (human (endogenous in HK-2))
[2] = target: T2, Klotho (human (endogenous in HK-2))
[3] = target: T2, Klotho (human (endogenous in HK-2)); remark: listed apart in the source

binding [1] | binding [2] | binding [3] | Molecule
no binding | no binding |  | GAPDH (from UniProt P04406 1-335)
 |  | binds | ABI3BP (protein, UniProt Q7Z7G0 22-1068) QKLPKGKRPNLKVHINTTSDSILLKFLRPSPNVKLEGLLLGYGSNVSPNQYFPLPAEGKFTEAIVDAEPKYLIVVRPAPPPSQKKSCSGKTRSRKPLQLVVGTLTPSSVFLSWGFLINPHHDWTLPSHCPNDRFYTIRYREKDKEKKWIFQICPATETIVENLKPNTVYEFGVKDNVEGGIWSKIFNHKTVVGSKKVNGKIQSTYDQDHTVPAYVPRKLIPITIIKQVIQNVTHKDSAKSPEKAPLGGVILVHLIIPGLNETTVKLPASLMFEISDALKTQLAKNETLALPAESKTPEVEKISARPTTVTPETVPRSTKPTTSSALDVSETTLASSEKPWIVPTAKISEDSKVLQPQTATYDVFSSPTTSDEPEISDSYTATSDRILDSIPPKTSRTLEQPRATLAPSETPFVPQKLEIFTSPEMQPTTPAPQQTTSIPSTPKRRPRPKPPRTKPERTTSAGTITPKISKSPEPTWTTPAPGKTQFISLKPKIPLSPEVTHTKPAPKQTPRAPPKPKTSPRPRIPQTQPVPKVPQRVTAKPKTSPSPEVSYTTPAPKDVLLPHKPYPEVSQSEPAPLETRGIPFIPMISPSPSQEELQTTLEETDQSTQEPFTTKIPRTTELAKTTQAPHRFYTTVRPRTSDKPHIRPGVKQAPRPSGADRNVSVDSTHPTKKPGTRRPPLPPRPTHPRRKPLPPNNVTGKPGSAGIISSGPITTPPLRSTPRPTGTPLERIETDIKQPTVPASGEELENITDFSSSPTRETDPLGKPRFKGPHVRYIQKPDNSPCSITDSVKRFPKEEATEGNATSPPQNPPTNLTVVTVEGCPSFVILDWEKPLNDTVTEYEVISRENGSFSGKNKSIQMTNQTFSTVENLKPNTSYEFQVKPKNPLGEGPVSNTVAFSTESADPRVSEPVSAGRDAIWTERPFNSDSYSECKGKQYVKRTWYKKFVGVQLCNSLRYKIYLSDSLTGKFYNIGDQRGHGEDHCQFVDSFLDGRTGQQLTSDQLPIKEGYFRAVRQEPVQFGEIGGHTQINYVQWYECGTTIPGKW
